The list shows a part of the results. These are raw signals, not scaled to a control.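 In the initial screen, polymyxin B was used at a concentration that permeabilizes Salmonella's outer membrane but not its inner membrane. Maximum growth was set by DMSO wells with or without polymyxin B. Since plates varied, data were ranked per plate, and compounds giving the lowest OD600 advanced as hits.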
Tested on: Salmonella enterica serovar Typhimurium SL1344
Experiment: bacterial growth OD600 after 18 h with compound and polymyxin B; higher = more bacterial growth (less inhibition)
Settings: 50 µM, Mueller-Hinton broth

Row | SMILES | bacterial growth OD600 (polymyxin B 1 µg/mL) | bacterial growth OD600 (polymyxin B 0.75 µg/mL)
1 | CCOC(=O)C1(CCc2ccccc2)CCN(C(=O)CSc2ncccn2)CC1 | 0.758 | –
2 | CCN(C)c1ccc(-c2nc(Cc3ccc(OC)cc3)no2)cn1 | 0.862 | –
3 | CN(CCc1ccccc1)C1CCCN(C(=O)c2cccc(N3CCOCC3)c2)C1 (stereo not given) | 1.21 | –
4 | COc1ccc(OC2CCN(C3CCCC3)CC2)c(C(=O)NCc2csc(C)n2)c1 | 1.17 | –
5 | Cc1ccn(CCC(=O)NC2CCCc3c2cnn3-c2ccc(F)cc2F)n1 (stereo not given) | 0.844 | –
6 | CCOC(=O)C1(CCCc2ccccc2)CCN(C(=O)CSC)CC1 | 0.368 | –
7 | CCN1CCN(C(=O)c2coc(COc3cccc(F)c3F)n2)CC1 | 0.97 | –
8 | COc1cc(NC(=O)CCC2CCCN(C(=O)Cc3cccnc3)C2)cc(OC)c1 (stereo not given) | 1.11 | –
9 | CSc1ccccc1N1C(=O)CN(C(=O)[C@@H]2C[C@H]2c2ccccc2)CC1C (stereo not given in full) | – | 0.805
10 | CN(C(=O)c1cccs1)C(Cc1ccccc1F)C1CCN(C(=O)/C=C/c2ccncc2)CC1 (stereo not given) | – | 0.864
11 | COc1ccccc1CCN1CCC(CN(C)C(=O)c2ccc(F)c(Cl)c2)CC1 | 1.14 | –
12 | CCOC(=O)C1(CC2CC2)CCN(Cc2ccc(F)c(OC)c2)CC1 | 0.893 | –
13 | O=S(=O)(CC1CC1)c1ncc(CN2CCSCC2)n1CC1CCCO1 (stereo not given) | 0.911 | –
14 | Cc1cnccc1CNC(=O)C1(N2C[C@@H](C)O[C@@H](C)C2)Cc2ccccc2C1 | 1.22 | –
15 | CC(C)CCNC(=O)c1cn(CC(C)C)cc(C(=O)N2CCN(C/C=C/c3ccccc3)CC2)c1=O | – | 0.015
16 | CCOC(=O)N1CCN(Cc2c[nH]nc2-c2ccc(C)c(C)c2)CC1 | 0.918 | –
17 | CCN1CCN(C2(C(=O)NC(C)Cc3cccnc3)Cc3ccccc3C2)CC1 (stereo not given) | – | 0.793
18 | CCc1[nH]c2ccc(CNC(=O)CCN3CCCO3)cc2c1C | 1.03 | –
19 | Cc1c(CN2CCCC(Nc3cccc(F)c3)C2)c(=O)n(-c2ccccc2)n1C (stereo not given) | 1.15 | –
20 | Cc1cccc(-c2cnc(-c3ccncc3)nc2C2CCN(Cc3cccc(OCCO)c3)CC2)c1 | – | 0.683

Some values from the list:
Under bacterial growth OD600 (polymyxin B 0.75 µg/mL), CN(C(=O)c1cccs1)C(Cc1ccccc1F)C1CCN(C(=O)/C=C/c2ccncc2)CC1 (stereo not given) is listed with 0.864
Under bacterial growth OD600 (polymyxin B 1 µg/mL), CCOC(=O)C1(CCc2ccccc2)CCN(C(=O)CSc2ncccn2)CC1 is listed with 0.758

Source: the supplement of paper PMC12889115
